Here are results for 39 molecules from the supplement of paper PMC8047044.

Where a name gives a salt, the structure may show the parent alone. The list shows a part of the results. Most values come without repeats; read them as rough.

In this assay the test system is Neuro-2a. The assay is described as follows: neurite formation score, plate-normalized to DMSO control mean 5.04 (score (0-8 scale)); higher = more or longer neurites. Particulars: 10 µM.
`CN1CCN(S(=O)(=O)c2ccc(-c3cnc(N)c(C(=O)Nc4cccnc4)n3)cc2)CC1` displayed a neurite formation score of 4.19.
For `CO[C@@H](C(=O)N1Cc2[nH]nc(NC(=O)c3ccc(N4CCN(C)CC4)cc3)c2C1)c1ccccc1` the value was 0.41.
As to `COc1cc2c(Oc3ccc(NC(=O)C4(C(=O)Nc5ccc(F)cc5)CC4)cc3F)ccnc2cc1OCCCN1CCOCC1`, the neurite formation score worked out at 0.209.
The molecule `O=C1NC(=O)/C(=C\c2ccc3nccnc3c2)S1` came in with a neurite formation score of 4.76.
In the case of `OCCn1cc(-c2ccc3c(c2)CC/C3=N\O)c(-c2ccncc2)n1`, the neurite formation score is 4.41.
In turn, `CCS(=O)(=O)c1cccc(-c2cc(C(=O)NC3CCN(C)CC3)c(C)c3[nH]c4ncc(C)cc4c23)c1` came in with a neurite formation score of 0.41.
As to `COc1cc2/c(=N/c3ccc(Br)cc3F)nc[nH]c2cc1OCC1CCN(C)CC1` [Vandetanib (ZD6474)], the neurite formation score was 3.76.
In turn, `CN1CCC(CNc2ccc3ncc(-c4cccc(OC(F)(F)F)c4)n3n2)CC1` [SGI-1776 free base] displayed a neurite formation score of -0.256.
The molecule `C#Cc1cccc(Nc2ncnc3cc(OC)c(OCCCCCCC(=O)NO)cc23)c1` displayed a neurite formation score of 0.077.
Turning to `CCNc1nc(Nc2cc(F)c(C(=O)N3CCOCC3)cc2OC)ncc1C(F)(F)F`, the neurite formation score is 4.86.
As for `O=C(NCCCNc1nc(Nc2cccc(NC(=O)N3CCCC3)c2)ncc1I)c1cccs1`, the neurite formation score was 6.19.
On to `O=c1cc(N2CCOCC2)oc2c1ccc1ccccc12`, for which the neurite formation score came to 3.42.
`COc1cc(Nc2c(C#N)cnc3cc(OCCCN4CCN(C)CC4)c(OC)cc23)c(Cl)cc1Cl` [Bosutinib (SKI-606)] registered a neurite formation score of 2.54.
The molecule `COc1ccc(S(=O)(=O)N(C(C)=O)c2ccccc2/C=C/c2cc[n+]([O-])cc2)cc1` showed a neurite formation score of 0.853.
As for `Nc1nc(N)c2nc(-c3cccc(O)c3)c(-c3cccc(O)c3)nc2n1`, the figure is 3.88; as for `Cc1cn(-c2cc(NC(=O)c3ccc(C)c(Nc4nccc(-c5cccnc5)n4)c3)cc(C(F)(F)F)c2)cn1` [Nilotinib monohydrochloride monohydrate], 3.42.
Molecule `NC(=O)c1cccc(-c2cc(Nc3ccc(OC(F)(F)F)cc3)ncn2)c1` had a neurite formation score of 4.09.
`C[C@@H]1CN(CC(=O)Nc2ccc3c(c2)Cc2cccc(-c4cc(=O)cc(N5CCOCC5)o4)c2S3)C[C@H](C)O1` registered a neurite formation score of 1.52.
Consider `COc1cc2nccc(Oc3ccc(NC(=O)C4(C(=O)Nc5ccc(F)cc5)CC4)cc3)c2cc1OC`, for which the neurite formation score came out at 1.21.
`O=C(NC(NC(=S)Nc1ccc(F)c([N+](=O)[O-])c1)C(Cl)(Cl)Cl)C(c1ccccc1)c1ccccc1` (centres undefined) registered a neurite formation score of 4.76.
In the case of `CNC(=O)c1cc(Oc2ccc(NC(=O)Nc3ccc(Cl)c(C(F)(F)F)c3)c(F)c2)ccn1` [Regorafenib], the neurite formation score was determined as 3.52.
With `CN1CCC(Nc2nc(Nc3ccc(Oc4ccccc4)cc3)c3c(=O)[nH]cc(Br)c3n2)CC1`, the neurite formation score is 1.09.
With `COc1cccc(-c2cc(=O)c3ccccc3o2)c1N`, the neurite formation score came to 4.21.
As for `Cc1c(Cn2c(C)nc3c(C(=O)O)cc(N4CCOCC4)cc32)cccc1C(F)(F)F`, the figure is 4.86.
With `CNC(=O)c1ccc(-c2cnc3ncc(Cc4ccc5ncccc5c4)n3n2)cc1F`, the neurite formation score came out at 3.76.
As for `Oc1ccc(-c2nc(-c3ccc(F)cc3)c(-c3ccncc3)[nH]2)cc1`, the figure is 4.88.
As for `CC(C)(C)c1cc(NC(=O)Nc2ccc(-c3cn4c(n3)sc3cc(OCCN5CCOCC5)ccc34)cc2)no1` [Quizartinib (AC220)], the figure is 4.19.
Molecule `C#Cc1cccc(Nc2ncnc3cc(OCCOC)c(OCCOC)cc23)c1` [Erlotinib Hydrochloride] showed a neurite formation score of 4.85.
Take `Cc1ccc(NC(=O)c2ccc(CN3CCN(C)CC3)cc2)cc1Nc1nccc(-c2cccnc2)n1` [Imatinib Mesylate (STI571)]: the neurite formation score stood at 4.21.
`COc1ccc2c(OCc3nnc4ccc(-c5ccccc5)nn34)ccnc2c1`: the neurite formation score was 4.86.
`COc1cc2ncnc(Nc3ccc(O)c(Br)c3)c2cc1OC` returned a neurite formation score of 2.76.
As for `O=C(Cc1ccc(-c2ccc(OCCN3CCOCC3)cc2)cn1)NCc1ccccc1`, the figure is -0.243; as for `Cc1cc(C)c(/C=C2\C(=O)Nc3ccccc32)[nH]1`, 3.74; as for `Cc1cc2c(F)c(Oc3ncnn4cc(OC[C@@H](C)OC(=O)[C@H](C)N)c(C)c34)ccc2[nH]1`, 4.21.
For `O=c1cc(-c2ccccc2)oc2c(O)c(O)ccc12` [7,8-Dihydroxyflavone] the value was 5.19; for `COc1cc(C(=O)N2CCC(N3CCN(C)CC3)CC2)ccc1Nc1ncc2c(n1)N(C)c1ccccc1C(=O)N2C`, 4.74; for `CCCCCCCCCCCCCCCc1cccc(O)c1C(=O)O` [Anacardic acid], 1.08.
The molecule `Nc1ncnc2c1c(-c1cccc(OCc3ccccc3)c1)cn2C1CC(CN2CCC2)C1` (centres undefined) gave a neurite formation score of -0.124.
Molecule `OCCn1cc(-c2cnc3nnn(Cc4ccc5ncccc5c4)c3n2)cn1` yielded a neurite formation score of 4.74.
